# Laboratory results taken from the supplement of paper PMC12823440, “Inhibitors supercharge kinase turnover through native proteolytic circuits” (Nature, 2025).
# Sequences of proteins named here, by UniProt entry; tags and fusion partners are left off. A change or cut given only in a name is not applied to a line headed by its entry.
# UniProt Q05397, whole entry, looked up: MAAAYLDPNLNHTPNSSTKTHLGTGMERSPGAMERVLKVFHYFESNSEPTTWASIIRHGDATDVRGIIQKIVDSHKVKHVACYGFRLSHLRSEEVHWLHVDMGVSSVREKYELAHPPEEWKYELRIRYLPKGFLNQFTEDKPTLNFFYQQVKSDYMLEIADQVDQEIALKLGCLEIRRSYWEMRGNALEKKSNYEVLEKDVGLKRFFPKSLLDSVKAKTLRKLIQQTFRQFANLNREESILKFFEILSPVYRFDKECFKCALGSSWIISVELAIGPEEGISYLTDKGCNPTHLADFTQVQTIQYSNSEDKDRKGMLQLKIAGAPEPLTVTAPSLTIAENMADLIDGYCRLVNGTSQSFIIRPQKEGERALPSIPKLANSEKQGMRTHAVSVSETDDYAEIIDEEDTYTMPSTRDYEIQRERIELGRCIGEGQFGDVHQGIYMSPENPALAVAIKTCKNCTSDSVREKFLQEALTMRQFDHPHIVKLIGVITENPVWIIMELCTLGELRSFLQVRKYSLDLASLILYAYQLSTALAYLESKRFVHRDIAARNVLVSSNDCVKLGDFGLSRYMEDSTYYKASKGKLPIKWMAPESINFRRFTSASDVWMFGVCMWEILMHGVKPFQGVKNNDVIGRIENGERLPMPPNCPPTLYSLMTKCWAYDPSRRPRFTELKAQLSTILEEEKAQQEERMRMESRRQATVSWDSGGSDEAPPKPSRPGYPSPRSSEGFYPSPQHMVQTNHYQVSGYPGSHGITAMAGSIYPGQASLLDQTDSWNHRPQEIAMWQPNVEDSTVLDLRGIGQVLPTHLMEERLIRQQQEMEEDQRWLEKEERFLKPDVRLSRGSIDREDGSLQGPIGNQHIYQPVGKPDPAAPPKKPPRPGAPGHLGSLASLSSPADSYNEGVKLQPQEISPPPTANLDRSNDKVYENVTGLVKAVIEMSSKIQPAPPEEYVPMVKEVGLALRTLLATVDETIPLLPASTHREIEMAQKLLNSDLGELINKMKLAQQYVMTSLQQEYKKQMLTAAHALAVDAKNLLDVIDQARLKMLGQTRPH
# UniProt Q14289, whole entry, looked up: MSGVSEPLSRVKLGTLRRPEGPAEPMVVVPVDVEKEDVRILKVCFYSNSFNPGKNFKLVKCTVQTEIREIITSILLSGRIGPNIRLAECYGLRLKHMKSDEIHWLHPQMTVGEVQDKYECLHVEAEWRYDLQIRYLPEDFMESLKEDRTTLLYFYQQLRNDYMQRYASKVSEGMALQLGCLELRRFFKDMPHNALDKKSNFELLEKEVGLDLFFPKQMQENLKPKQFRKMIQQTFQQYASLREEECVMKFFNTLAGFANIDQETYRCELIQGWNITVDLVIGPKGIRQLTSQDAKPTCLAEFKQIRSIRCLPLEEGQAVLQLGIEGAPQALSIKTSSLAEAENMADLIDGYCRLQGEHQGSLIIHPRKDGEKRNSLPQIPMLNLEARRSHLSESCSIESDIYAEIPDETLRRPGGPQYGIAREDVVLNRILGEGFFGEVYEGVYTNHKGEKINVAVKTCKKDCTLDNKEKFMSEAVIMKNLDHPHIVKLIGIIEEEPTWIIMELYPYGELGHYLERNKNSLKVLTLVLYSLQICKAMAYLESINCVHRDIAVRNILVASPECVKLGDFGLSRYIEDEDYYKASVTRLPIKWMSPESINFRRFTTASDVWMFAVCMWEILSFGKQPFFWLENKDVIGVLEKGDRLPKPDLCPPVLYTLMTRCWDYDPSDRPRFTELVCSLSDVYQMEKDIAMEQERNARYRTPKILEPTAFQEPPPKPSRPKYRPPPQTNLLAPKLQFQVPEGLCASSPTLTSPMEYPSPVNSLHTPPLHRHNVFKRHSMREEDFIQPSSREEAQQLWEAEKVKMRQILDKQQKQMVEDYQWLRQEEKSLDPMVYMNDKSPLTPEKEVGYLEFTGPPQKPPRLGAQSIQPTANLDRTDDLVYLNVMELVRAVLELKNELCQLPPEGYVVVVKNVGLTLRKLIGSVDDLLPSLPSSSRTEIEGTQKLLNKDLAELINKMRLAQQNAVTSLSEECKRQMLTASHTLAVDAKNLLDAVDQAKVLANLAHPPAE
# UniProt P07949, whole entry, looked up: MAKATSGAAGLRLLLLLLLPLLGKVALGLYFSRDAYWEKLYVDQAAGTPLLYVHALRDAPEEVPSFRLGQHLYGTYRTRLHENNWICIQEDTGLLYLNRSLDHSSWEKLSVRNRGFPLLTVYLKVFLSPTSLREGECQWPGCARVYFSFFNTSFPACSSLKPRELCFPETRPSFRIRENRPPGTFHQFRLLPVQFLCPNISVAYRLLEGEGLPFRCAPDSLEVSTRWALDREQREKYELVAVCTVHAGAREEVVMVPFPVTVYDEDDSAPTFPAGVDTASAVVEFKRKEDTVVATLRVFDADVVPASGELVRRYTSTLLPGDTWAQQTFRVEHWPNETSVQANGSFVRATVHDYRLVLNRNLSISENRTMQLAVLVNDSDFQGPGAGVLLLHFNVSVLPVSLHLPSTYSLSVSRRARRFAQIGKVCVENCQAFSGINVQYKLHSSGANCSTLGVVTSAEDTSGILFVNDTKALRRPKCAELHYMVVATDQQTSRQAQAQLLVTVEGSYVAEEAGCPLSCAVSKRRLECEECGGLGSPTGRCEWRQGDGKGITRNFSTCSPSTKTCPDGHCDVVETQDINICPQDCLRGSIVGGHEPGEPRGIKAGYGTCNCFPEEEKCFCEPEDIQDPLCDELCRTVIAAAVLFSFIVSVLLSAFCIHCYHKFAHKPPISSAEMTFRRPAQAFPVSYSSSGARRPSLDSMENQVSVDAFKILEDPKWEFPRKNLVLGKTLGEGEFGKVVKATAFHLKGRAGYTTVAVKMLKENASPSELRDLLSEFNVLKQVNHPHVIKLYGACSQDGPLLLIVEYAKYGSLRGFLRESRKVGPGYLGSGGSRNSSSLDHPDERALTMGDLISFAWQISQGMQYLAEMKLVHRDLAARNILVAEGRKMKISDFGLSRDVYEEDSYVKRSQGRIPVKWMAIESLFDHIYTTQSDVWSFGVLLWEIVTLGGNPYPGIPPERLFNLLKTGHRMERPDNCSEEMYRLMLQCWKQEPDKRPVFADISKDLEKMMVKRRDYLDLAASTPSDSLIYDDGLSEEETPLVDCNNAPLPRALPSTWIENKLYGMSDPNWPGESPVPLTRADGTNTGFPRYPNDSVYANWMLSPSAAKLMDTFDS
# UniProt P07949, whole entry M918T, looked up: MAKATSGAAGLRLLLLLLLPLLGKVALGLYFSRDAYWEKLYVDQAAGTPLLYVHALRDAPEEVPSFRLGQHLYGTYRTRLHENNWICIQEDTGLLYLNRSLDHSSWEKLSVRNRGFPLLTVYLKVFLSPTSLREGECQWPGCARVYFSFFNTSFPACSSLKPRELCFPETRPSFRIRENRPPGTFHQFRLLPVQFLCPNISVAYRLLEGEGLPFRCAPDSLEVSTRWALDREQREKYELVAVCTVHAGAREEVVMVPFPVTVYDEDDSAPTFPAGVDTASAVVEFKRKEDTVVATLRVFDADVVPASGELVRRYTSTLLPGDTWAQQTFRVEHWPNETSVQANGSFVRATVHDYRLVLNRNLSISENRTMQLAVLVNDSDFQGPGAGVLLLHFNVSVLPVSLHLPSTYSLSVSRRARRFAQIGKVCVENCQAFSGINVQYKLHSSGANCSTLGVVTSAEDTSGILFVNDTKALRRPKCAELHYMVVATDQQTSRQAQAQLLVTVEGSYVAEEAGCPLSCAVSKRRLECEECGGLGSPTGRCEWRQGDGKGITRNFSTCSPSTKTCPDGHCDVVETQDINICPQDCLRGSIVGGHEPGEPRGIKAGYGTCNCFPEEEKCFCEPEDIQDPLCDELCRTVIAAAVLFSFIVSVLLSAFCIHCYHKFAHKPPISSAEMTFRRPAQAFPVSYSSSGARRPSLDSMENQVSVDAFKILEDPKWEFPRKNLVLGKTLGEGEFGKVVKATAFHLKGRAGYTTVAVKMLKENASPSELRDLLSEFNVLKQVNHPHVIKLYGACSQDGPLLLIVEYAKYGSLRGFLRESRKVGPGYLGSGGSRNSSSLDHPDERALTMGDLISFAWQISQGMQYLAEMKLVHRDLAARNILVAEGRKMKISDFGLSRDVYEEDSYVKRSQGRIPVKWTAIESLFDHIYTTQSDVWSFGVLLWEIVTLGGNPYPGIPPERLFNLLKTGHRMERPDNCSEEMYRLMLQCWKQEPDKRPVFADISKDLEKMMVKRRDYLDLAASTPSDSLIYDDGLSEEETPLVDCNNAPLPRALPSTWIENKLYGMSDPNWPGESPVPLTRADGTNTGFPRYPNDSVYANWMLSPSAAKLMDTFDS
# UniProt Q9BRS2: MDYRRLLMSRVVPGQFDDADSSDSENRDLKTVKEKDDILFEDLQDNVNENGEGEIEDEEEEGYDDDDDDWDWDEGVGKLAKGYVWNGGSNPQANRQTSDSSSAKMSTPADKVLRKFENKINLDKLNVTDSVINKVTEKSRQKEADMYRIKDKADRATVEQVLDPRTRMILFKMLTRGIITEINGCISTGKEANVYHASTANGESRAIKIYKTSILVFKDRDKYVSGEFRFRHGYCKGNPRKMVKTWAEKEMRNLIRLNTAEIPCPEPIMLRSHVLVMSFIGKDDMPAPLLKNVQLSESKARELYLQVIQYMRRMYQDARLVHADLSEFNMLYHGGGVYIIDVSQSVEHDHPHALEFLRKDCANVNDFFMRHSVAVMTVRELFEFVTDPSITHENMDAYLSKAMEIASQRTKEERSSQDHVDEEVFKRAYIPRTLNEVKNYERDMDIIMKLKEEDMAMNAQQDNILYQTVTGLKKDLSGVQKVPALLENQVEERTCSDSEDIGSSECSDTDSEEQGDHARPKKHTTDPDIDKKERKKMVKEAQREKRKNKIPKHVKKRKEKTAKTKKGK
# UniProt Q13546: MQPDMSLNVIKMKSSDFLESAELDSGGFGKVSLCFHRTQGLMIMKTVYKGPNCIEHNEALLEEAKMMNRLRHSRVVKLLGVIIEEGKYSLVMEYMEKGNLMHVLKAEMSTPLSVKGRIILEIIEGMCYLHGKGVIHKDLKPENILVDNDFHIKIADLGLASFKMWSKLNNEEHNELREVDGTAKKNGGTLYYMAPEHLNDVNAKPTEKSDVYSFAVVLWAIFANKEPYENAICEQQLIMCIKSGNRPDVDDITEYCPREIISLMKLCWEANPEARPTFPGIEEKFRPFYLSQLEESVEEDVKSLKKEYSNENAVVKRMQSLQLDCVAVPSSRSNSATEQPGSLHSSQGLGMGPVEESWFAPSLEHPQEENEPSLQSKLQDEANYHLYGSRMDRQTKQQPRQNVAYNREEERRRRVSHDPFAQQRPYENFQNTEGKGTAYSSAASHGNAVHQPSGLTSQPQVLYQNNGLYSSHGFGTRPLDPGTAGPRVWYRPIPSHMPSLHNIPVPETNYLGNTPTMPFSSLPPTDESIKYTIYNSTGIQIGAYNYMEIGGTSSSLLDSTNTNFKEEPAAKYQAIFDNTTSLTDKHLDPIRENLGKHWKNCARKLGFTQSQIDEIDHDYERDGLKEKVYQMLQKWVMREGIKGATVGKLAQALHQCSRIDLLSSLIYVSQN
# Counter-ions that a name gives are not always drawn. The list shows a part of the results. The calls rarely recur for the same compound in another form.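 Kinases were expressed as nanoluciferase fusions in K562 cells and luminescence was read every 4 h between 2 and 18 h as percent of control, DMSO set to 100% and a positive control to 0%. A time point counts as decreased when the signal drops significantly (2 sigma). The hit call is the authors' own, does not follow from the count of time points alone, and its rule is not shown.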
# What was measured:
# Assay in all cases: number of time points (of 5) at which kinase-Nluc abundance scored as decreased, DMSO-normalised (count); higher = more persistent destabilization
# Conditions in all cases: K562; 2-18 h
# PRKCA = PRKCA (UniProt P17252)
# PTK2 = PTK2 (UniProt Q05397)
# PTK2B = PTK2B (UniProt Q14289)
# RAF1 = RAF1 (UniProt P04049)
# [1] = molecular target: RAF1_S257L (clone: RAF1_mut) (UniProt P04049)
# RET = RET (UniProt P07949)
# [2] = molecular target: RET_M918T (clone: RET_mut) (UniProt P07949)
# RIOK1 = RIOK1 (UniProt Q9BRS2)
# RIPK1 = RIPK1 (UniProt Q13546)
# RIPK2 = RIPK2 (UniProt O43353)
SMILES,number of time points (PRKCA),number of time points (PTK2),number of time points (PTK2B),number of time points (RAF1),number of time points [1],number of time points (RET),number of time points [2],number of time points (RIOK1),number of time points (RIPK1),number of time points (RIPK2)
C[C@@H]1CN(Cc2ccc(F)cc2)[C@@H](C)CN1C(=O)c1cc2c(C(=O)C(=O)N(C)C)cn(C)c2cc1Cl [Talmapimod] (10 µM),0,0,0,0,0,0,0,0,0,0
Cc1cnc(Nc2ccc(F)cc2Cl)nc1-c1c[nH]c(C(=O)N[C@H](CO)c2cccc(Cl)c2)c1 (10 µM),0,0,0,0,0,0,0,0,0,0
C=CC(=O)N1CCC(c2ccc(C(N)=O)c(-c3ccc(Oc4ccccc4)cc3)n2)CC1 [Orelabrutinib] (2.5 µM),0,0,0,0,0,0,0,0,0,0
O=C(Nc1ccc(F)cc1F)C(NC(=S)Nc1cc(C(F)(F)F)cc(C(F)(F)F)c1)c1ccccc1 (racemic) (2.5 µM),0,0,0,0,0,0,0,0,0,0
CCc1c(C(=O)NNC(=O)[C@H](O)c2cc(F)cc(F)c2)ccc(O)c1C (10 µM),0,0,0,0,0,0,0,0,0,0
Cn1c(N2CCO[C@@H](c3ccc(F)cc3)C2)nc(-c2ccncn2)cc1=O (10 µM),0,0,0,0,0,0,0,0,0,0
CN(C)c1ccc(/C=C2\C(=O)Nc3ccccc32)c2ccccc12 (10 µM),0,1,0,0,0,2,0,0,0,0
Cc1ccc2c(NS(=O)(=O)c3ccccc3Cl)cccc2c1Oc1ncccc1-c1ccnc(N[C@H]2CCCNC2)n1 (2.5 µM),0,0,0,0,0,0,0,0,0,0
CC(=O)O/N=C1/C(c2c(O)[nH]c3cc(Br)ccc23)=Nc2ccccc21 [BIO-acetoxime] (10 µM),0,0,0,0,0,0,0,0,0,0
O=c1cc(-c2ccc(O[C@@H]3O[C@H](CO)[C@@H](O)[C@H](O)[C@H]3O)cc2)oc2cc(O)c([C@@H]3O[C@H](CO)[C@@H](O)[C@H](O)[C@H]3O[C@@H]3OC[C@H](O)[C@H](O)[C@H]3O)c(O)c12 [Vaccarin] (10 µM),0,0,0,0,0,0,0,0,0,0
CN(C)CCn1cc2cc(NC(=O)c3cccc(C(F)(F)F)n3)c(C(C)(C)O)cc2n1 (10 µM),0,0,0,0,0,0,0,0,0,0
CCNC(=O)Nc1ccc(-c2nc3c(c(N4CCOC[C@@H]4C)n2)CCN(C2COC2)C3)cc1 (2.5 µM),0,2,0,0,0,0,0,0,3,0
O=C1C=CC2=C3c4cc(O)c(O)cc4CC3(O)COC2=C1O (stereo not given) [Hematein] (10 µM),0,0,0,0,0,0,0,0,0,0
CC(=O)O[C@@H]1[C@@H](OC(C)=O)[C@@H](O)[C@H](Oc2c(-c3ccc(O)cc3)oc3cc(O)cc(O)c3c2=O)O[C@H]1C (10 µM),0,0,0,0,0,0,0,0,0,0
COc1cc(Nc2ccnc3ccc(Br)cc23)cc(OC)c1OC (2.5 µM),0,0,0,1,0,0,0,1,0,0
Nc1ccc(O)c(C(=O)O)c1 [5-Aminosalicylic Acid] (10 µM),0,0,0,0,0,0,0,0,0,0
COCCOc1cnc2ccn([C@H](C)c3nnc4c(F)cc(-c5cnn(C)c5)cn34)c(=O)c2c1 (10 µM),0,0,0,0,0,0,0,0,0,0
CO[C@]1(C(=O)N[C@@H](C)c2ccc(-n3cc(F)cn3)nc2)CC[C@H](c2nc(C)cc(Nc3cc(C)[nH]n3)n2)CC1 [Pralsetinib] (10 µM),0,0,0,0,2,0,0,0,0,0
Nc1ccc(Sc2nc3ccccc3s2)c(Cl)c1 [KRAS inhibitor-9] (10 µM),0,0,0,0,0,0,0,0,0,0

SMILES,number of time points (PRKCA),number of time points (PTK2),number of time points (PTK2B),number of time points (RAF1),number of time points [1],number of time points (RET),number of time points [2],number of time points (RIOK1),number of time points (RIPK1),number of time points (RIPK2)
CC1(C)C=Cc2c(ccc(C(=O)/C=C/c3ccc(O)cc3)c2O)O1 [4-Hydroxylonchocarpin] (10 µM),0,0,0,0,0,0,0,0,0,0
N#CC(=C(/N)Sc1ccccc1N)/C(C#N)=C(\N)Sc1ccccc1N (10 µM),0,0,0,0,0,0,0,0,0,0
CCCCNc1ncc(C(=O)NCc2ccc(-n3ccnc3)cc2)c(NC2CCC(O)CC2)n1 (stereo not given) (10 µM),0,0,0,0,0,0,0,0,0,0
Cc1n[nH]c2ncc(C(=O)N3CCC[C@H]3c3ccc(Cl)cc3)cc12 (10 µM),0,0,0,0,0,0,0,0,0,0
CCC(F)(F)c1cc(N2CCC(S(C)(=O)=O)CC2)nc2sc(C(N)=O)c(N)c12 (10 µM),0,0,0,0,0,0,0,0,0,0
COc1cc(N2CCC(N3CCN(C)CC3)CC2)ccc1Nc1ncnc(Nc2ccccc2S(=O)(=O)C(C)C)n1 (10 µM),0,0,0,0,0,0,0,0,0,0
COc1ccc(CN2CCC(c3ccc4nc(C(=O)N5CCN(Cc6ccc(C(F)(F)F)cc6)CC5)[nH]c4c3)CC2)cn1 (2.5 µM),0,0,0,0,2,0,1,0,0,0
O=C(Nc1ccnc(NC(=O)C2CC2)c1)c1c(Cl)cccc1Cl (10 µM),0,0,0,0,4,0,0,0,0,0
Nc1[nH]nc2nnc(-c3c(-c4ccccc4)nn4ccccc34)cc12 (10 µM),0,0,0,0,0,0,0,0,0,0
CO[C@@H]1[C@H](N(C)C(=O)c2ccccc2)C[C@H]2O[C@]1(C)n1c3ccccc3c3c4c(c5c6ccccc6n2c5c31)C(=O)NC4 [Midostaurin] (2.5 µM),0,0,0,2,0,0,0,0,2,1
O=C(NCc1ccn[nH]1)c1cc([C@@H]2CCNC[C@H]2COc2ccc3c(c2)OCO3)ccc1F [GRK2-IN-1 (hydrochloride)] (10 µM),0,0,0,0,0,0,0,0,0,0
CNCCOc1ccccc1C1(Nc2nccn(-c3cc(C(=O)NC4CC4)cc(F)c3C)c2=O)CC1 (10 µM),0,0,0,0,0,0,0,0,0,0
O=C1NC(=O)C(Cc2c[nH]c3c(Cl)cccc23)N1 (stereo not given) [Necroptosis-IN-1] (10 µM),0,0,0,0,0,0,0,0,0,0
CN1CCN(c2ccc(-c3ccncc3-c3cc(F)c(O)c(F)c3)cc2)CC1 (10 µM),0,0,0,0,0,0,0,0,0,0
COc1c(Nc2ncc(Cl)c(N[C@H]3[C@@H](C(N)=O)[C@@H]4C=C[C@H]3C4)n2)ccc2c1CC[C@@H](N1CCOCC1)CC2 (10 µM),0,0,0,0,0,0,0,0,0,0
CN1CCC(Nc2nc(Nc3ccc(Oc4ccccc4)cc3)c3c(=O)[nH]cc(Br)c3n2)CC1 (2.5 µM),0,3,0,0,0,0,3,0,0,0
CCCCNc1ncc2c(-c3ccc(F)cc3)nn(CC3CCC(N)CC3)c2n1 (stereo not given) (2.5 µM),0,0,0,0,0,0,0,0,0,0
CN1CCN(c2ccc(-n3cc(-c4ccncc4OCC4CCNCC4)cn3)cc2)CC1 [MELK-8a (hydrochloride)] (10 µM),0,1,1,0,4,0,0,3,2,3

# Two successive entries from above, for reference:
SMILES,number of time points (PRKCA),number of time points (PTK2),number of time points (PTK2B),number of time points (RAF1),number of time points [1],number of time points (RET),number of time points [2],number of time points (RIOK1),number of time points (RIPK1),number of time points (RIPK2)
O=C1NC(=O)C(Cc2c[nH]c3c(Cl)cccc23)N1 (stereo not given) [Necroptosis-IN-1] (10 µM),0,0,0,0,0,0,0,0,0,0
CN1CCN(c2ccc(-c3ccncc3-c3cc(F)c(O)c(F)c3)cc2)CC1 (10 µM),0,0,0,0,0,0,0,0,0,0
